Results published in ChEMBL document CHEMBL3612028, “Design, synthesis, pharmacological evaluation and molecular dynamics of β-amino acids morphan-derivatives as novel ligands for opioid receptors” (Eur J Med Chem, 2015).
pKi: −log10 of the molar value.

The chains behind the UniProt entries cited, without tags or fusion partners.
UniProt B8JHS2, whole entry: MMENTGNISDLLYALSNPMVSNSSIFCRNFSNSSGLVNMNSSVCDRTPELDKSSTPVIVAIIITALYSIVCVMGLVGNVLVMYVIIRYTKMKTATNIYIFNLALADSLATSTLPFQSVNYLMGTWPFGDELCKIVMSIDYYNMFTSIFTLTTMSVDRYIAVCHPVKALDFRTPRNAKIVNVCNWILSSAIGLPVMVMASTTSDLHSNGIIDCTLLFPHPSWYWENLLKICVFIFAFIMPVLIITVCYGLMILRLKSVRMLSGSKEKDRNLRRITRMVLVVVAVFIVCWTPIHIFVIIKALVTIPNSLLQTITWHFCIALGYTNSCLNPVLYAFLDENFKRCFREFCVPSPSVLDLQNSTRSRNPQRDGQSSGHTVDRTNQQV

Target: Mu opioid receptor-like OR2 (Danio rerio, UniProt B8JHS2)
Experiment: Displacement of [3H]-diprenorphine from zebrafish mu opioid receptor expressed in HEK293 cells after 1 hr by liquid scintillation counting
Assay type: cell-based

## CN1CC[C@]23c4c5ccc(O)c4O[C@H]2[C@@H](O)C=C[C@H]3[C@H]1C5 [MORPHINE]
  pKi: 6.73
